Results: the supplement of paper PMC10849652
This is one part of the list.

Protein sequences, listed by entry. Tags and fused reporters are not part of them. Lines headed by an entry give the natural chain unless they say otherwise; changes in a name come on top.
UniProt Q99732: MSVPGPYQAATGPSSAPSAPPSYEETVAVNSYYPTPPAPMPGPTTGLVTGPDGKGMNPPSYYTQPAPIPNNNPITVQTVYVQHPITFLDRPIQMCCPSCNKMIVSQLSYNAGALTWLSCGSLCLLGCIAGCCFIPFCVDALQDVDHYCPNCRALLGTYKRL
UniProt O75197: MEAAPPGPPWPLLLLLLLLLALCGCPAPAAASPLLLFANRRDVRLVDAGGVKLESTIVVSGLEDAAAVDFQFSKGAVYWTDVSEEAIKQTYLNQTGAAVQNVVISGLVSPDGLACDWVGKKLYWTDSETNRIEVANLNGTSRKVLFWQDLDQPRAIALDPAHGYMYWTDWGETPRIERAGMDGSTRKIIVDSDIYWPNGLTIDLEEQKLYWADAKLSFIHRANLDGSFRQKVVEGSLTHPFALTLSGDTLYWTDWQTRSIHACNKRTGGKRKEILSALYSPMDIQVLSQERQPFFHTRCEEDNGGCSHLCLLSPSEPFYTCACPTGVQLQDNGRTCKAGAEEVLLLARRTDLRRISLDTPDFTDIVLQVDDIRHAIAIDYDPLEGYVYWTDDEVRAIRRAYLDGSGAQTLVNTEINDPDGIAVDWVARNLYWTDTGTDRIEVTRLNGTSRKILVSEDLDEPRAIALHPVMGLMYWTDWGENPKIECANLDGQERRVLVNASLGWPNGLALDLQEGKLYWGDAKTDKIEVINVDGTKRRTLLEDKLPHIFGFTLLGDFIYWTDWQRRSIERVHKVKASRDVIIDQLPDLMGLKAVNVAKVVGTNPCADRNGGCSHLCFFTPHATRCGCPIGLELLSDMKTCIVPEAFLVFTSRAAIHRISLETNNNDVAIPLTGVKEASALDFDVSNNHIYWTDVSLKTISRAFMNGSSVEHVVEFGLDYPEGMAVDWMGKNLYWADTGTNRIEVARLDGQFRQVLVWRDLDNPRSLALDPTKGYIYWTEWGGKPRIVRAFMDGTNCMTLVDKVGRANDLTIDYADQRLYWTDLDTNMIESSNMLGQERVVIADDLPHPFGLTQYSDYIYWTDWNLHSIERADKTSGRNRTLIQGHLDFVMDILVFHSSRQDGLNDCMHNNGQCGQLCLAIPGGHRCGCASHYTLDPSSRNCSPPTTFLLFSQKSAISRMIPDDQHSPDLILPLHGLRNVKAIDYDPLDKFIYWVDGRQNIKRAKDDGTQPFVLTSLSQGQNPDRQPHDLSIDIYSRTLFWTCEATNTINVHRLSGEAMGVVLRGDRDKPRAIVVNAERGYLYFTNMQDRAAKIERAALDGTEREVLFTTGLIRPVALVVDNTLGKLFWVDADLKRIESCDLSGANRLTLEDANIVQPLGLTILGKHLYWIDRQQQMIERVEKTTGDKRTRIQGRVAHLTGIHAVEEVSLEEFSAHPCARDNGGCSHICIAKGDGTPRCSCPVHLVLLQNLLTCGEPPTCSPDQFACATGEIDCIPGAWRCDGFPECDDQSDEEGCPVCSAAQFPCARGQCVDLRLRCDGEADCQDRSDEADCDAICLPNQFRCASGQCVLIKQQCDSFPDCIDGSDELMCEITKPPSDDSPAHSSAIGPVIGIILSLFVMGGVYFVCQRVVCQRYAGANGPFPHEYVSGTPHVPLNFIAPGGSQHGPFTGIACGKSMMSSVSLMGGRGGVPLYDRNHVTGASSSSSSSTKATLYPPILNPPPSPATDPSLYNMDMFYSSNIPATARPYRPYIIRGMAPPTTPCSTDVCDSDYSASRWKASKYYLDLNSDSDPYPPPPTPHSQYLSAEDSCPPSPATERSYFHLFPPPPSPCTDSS
UniProt O75581: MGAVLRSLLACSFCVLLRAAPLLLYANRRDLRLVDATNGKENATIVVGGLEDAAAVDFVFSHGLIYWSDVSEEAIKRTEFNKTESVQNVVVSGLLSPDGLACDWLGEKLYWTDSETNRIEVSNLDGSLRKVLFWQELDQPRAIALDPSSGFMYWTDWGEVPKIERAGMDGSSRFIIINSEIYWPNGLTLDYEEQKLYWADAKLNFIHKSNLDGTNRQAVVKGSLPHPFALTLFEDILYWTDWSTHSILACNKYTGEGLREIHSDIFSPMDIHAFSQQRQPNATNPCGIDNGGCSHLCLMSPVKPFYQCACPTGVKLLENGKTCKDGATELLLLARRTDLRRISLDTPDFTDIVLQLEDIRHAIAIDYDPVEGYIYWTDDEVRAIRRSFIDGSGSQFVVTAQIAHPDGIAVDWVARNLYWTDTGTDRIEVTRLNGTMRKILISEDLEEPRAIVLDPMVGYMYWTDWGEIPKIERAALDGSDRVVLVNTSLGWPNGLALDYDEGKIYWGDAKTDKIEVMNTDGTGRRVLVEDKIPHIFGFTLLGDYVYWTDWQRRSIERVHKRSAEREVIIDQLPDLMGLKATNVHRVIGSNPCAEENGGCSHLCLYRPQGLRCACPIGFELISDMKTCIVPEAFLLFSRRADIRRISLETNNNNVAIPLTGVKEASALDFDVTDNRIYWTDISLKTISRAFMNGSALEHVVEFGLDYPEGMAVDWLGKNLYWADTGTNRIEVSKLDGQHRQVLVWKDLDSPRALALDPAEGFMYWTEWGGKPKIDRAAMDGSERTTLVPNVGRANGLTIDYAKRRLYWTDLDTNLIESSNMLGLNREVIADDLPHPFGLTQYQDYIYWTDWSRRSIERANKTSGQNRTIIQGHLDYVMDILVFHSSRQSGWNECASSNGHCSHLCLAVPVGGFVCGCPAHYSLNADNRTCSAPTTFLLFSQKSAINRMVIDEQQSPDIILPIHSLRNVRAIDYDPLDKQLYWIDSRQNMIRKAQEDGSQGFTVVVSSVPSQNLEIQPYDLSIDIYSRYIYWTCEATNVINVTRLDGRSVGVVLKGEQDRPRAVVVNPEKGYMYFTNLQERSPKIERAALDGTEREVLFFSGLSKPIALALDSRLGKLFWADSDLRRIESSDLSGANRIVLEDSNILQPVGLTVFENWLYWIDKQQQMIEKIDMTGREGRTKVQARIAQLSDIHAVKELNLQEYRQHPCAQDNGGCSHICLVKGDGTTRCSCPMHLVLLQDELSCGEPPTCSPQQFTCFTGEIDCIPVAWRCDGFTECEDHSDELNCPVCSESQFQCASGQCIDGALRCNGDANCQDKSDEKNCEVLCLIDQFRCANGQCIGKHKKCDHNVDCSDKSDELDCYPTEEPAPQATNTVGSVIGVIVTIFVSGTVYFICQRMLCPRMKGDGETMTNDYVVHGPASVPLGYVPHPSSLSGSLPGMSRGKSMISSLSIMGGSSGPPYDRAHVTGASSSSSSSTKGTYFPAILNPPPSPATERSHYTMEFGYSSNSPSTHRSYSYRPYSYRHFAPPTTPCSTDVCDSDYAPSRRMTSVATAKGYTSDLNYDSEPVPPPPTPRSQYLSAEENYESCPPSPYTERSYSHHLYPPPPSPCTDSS
UniProt Q6P5S2: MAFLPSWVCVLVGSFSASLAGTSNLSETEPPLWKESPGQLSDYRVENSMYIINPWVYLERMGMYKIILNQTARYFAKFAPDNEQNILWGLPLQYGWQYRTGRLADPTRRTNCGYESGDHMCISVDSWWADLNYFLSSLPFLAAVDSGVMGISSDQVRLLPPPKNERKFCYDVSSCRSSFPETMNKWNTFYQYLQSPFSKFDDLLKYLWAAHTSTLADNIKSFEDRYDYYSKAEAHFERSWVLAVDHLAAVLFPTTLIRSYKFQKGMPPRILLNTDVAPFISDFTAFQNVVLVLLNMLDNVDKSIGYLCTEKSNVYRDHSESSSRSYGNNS
UniProt Q6ZRR7: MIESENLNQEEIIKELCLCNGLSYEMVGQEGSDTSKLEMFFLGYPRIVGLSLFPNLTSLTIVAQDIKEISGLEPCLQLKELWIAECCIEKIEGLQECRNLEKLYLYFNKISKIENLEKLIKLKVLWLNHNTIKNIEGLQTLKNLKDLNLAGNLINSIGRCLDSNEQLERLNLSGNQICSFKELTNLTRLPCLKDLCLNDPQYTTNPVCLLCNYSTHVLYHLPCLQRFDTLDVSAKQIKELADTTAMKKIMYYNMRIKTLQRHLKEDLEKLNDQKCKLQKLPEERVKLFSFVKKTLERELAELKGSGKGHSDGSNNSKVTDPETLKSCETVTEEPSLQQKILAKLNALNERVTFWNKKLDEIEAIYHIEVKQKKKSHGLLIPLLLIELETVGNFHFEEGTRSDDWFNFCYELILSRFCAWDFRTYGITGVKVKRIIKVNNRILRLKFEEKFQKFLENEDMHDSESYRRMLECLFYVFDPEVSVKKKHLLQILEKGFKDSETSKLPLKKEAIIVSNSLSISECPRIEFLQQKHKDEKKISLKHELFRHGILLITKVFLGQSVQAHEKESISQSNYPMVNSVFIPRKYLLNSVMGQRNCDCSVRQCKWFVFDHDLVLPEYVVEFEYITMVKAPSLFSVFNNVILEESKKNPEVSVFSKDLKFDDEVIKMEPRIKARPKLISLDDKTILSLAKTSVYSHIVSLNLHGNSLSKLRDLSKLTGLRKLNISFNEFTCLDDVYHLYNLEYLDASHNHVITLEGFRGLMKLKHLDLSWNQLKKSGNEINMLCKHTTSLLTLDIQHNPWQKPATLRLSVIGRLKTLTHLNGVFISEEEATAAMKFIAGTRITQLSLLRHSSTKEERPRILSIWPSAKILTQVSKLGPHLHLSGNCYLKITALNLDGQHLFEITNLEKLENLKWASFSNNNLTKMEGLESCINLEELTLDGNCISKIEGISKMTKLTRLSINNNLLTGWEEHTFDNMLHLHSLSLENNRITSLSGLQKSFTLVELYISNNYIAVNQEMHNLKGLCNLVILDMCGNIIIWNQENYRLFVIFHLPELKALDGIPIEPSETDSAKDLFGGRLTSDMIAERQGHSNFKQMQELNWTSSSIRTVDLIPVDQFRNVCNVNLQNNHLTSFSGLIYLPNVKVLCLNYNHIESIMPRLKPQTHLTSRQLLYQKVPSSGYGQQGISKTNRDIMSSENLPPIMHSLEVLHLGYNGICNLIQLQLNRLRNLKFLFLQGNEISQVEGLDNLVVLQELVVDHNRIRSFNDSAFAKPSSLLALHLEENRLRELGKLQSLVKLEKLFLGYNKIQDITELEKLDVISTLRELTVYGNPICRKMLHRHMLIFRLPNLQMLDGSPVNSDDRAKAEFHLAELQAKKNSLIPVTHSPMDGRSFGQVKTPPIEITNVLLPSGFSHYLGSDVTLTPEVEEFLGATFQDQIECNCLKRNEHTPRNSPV
UniProt Q9BX40: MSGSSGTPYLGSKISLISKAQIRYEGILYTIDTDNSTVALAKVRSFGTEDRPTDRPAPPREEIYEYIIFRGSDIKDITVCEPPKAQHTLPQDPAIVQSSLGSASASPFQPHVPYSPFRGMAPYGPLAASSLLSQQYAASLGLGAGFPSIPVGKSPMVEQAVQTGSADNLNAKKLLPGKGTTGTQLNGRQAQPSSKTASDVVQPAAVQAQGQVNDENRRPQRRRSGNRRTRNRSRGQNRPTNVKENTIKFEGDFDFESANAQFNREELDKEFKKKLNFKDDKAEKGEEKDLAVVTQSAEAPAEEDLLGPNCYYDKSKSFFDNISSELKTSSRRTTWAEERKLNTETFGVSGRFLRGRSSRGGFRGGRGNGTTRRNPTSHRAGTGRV
UniProt Q9UJU2, whole entry, looked up: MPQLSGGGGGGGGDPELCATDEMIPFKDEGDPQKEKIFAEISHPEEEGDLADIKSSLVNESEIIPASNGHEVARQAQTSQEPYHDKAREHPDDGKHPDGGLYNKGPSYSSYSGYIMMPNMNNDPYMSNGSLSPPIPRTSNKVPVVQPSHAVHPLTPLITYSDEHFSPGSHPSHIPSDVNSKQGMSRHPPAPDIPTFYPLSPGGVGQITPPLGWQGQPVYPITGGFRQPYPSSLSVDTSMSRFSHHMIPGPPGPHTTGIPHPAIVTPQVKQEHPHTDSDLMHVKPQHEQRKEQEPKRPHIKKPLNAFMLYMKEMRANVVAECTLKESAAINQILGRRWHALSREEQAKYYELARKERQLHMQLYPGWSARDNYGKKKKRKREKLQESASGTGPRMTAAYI
UniProt Q6ZUX7: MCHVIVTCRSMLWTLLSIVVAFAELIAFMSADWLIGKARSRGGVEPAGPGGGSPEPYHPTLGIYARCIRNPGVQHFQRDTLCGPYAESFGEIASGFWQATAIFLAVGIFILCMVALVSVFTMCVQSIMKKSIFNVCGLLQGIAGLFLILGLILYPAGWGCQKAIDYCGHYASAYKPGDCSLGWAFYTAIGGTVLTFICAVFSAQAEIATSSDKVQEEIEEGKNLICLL
UniProt Q9BQE6: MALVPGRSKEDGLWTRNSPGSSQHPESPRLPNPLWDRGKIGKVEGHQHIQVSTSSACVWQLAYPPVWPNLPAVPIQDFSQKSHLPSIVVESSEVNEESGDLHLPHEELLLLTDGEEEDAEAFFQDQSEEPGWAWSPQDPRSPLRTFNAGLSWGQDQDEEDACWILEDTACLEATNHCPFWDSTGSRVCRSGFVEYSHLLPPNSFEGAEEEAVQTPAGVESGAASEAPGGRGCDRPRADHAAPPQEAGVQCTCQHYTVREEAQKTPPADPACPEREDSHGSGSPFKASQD
UniProt Q9BT23: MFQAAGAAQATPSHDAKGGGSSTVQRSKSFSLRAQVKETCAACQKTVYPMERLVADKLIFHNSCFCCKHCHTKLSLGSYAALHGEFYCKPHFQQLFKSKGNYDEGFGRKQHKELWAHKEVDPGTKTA

Compound: CN1CCN(CCOc2cc(OC3CCOCC3)c3c(Nc4c(Cl)ccc5c4OCO5)ncnc3c2)CC1 [saracatinib]
Assay: log2 fold change, soluble protein after heating vs DMSO (PISA); higher = thermal stabilisation; K562 lysate, 10 uM; active = over 0.2 and 3.5 SD of the protein, either way, in both replicates (recomputed)
How it was run: (§1)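 Log-two fold change in thermal stability relative to solvent controls is reported from duplicates. For each sample, crude K562 extract from dounce-homogenised pellets in PBS pH 7.4 with 1 mM MgCl2, at 1 mg/mL protein, was treated with 10 μM compound for 30 min. Aliquots heated for 3 min across 48°C-58°C were pooled, brought to 0.5% NP-40 at 4°C and cleared at 21,000xg for 90 min. The supernatant was quantified by TMTpro 16plex LC-MS/MS with channel sums equalised.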

Target	log2 fold change
LRP10 (UniProt Q7Z4F1)	inactive: 0.101
LEMD2 (UniProt Q8NC56)	inactive: 0.072
LSM10 (UniProt Q969L4)	inactive: -0.012
LITAF (UniProt Q99732)	inactive: 0.012
LBH (UniProt Q53QV2)	inactive: 0.05
LRP5 (UniProt O75197)	inactive: 0.382
LRRC45 (UniProt Q96CN5)	inactive: 0.003
LSM11 (UniProt P83369)	inactive: 0.076
LRCH1 isoform 3 (UniProt Q9Y2L9)	inactive: 0.014
LRP6 (UniProt O75581)	inactive: -0.055
LONRF2 (UniProt Q1L5Z9)	inactive: 0.077
LEG1 (UniProt Q6P5S2)	inactive: -0.093
LIN52 (UniProt Q52LA3)	inactive: -0.121
LNX1 (UniProt Q8TBB1)	inactive: 0.334
LPGAT1 (UniProt Q92604)	inactive: 0.084
LATS1 (UniProt O95835)	inactive: -0.018

Compound: CN1CCN(c2nc(C3=C(c4c[nH]c5ccccc45)C(=O)NC3=O)c3ccccc3n2)CC1 [sotrastaurin]
Assay: as above
How it was run: as §1

Target	log2 fold change
LMBR1 isoform 3 (UniProt Q8WVP7)	inactive: -0.053
LRRC25 (UniProt Q8N386)	inactive: 0.079
LRRC9 (UniProt Q6ZRR7)	inactive: 0.01
LINC00526 (UniProt Q96FQ7)	inactive: 0.127
LSM14B (UniProt Q9BX40)	inactive: -0.131
LEF1 (UniProt Q9UJU2)	inactive: -0.028
LEMD2 (UniProt Q8NC56)	inactive: 0.009
LCA5 (UniProt Q86VQ0)	inactive: -0.073
LITAF (UniProt Q99732)	inactive: -0.003
LEPROT (UniProt O15243)	inactive: -0.009
LHFPL2 (UniProt Q6ZUX7)	inactive: -0.008
LEMD3 (UniProt Q9Y2U8)	inactive: -0.027
LSM11 (UniProt P83369)	inactive: -0.085
LSR isoform 3 (UniProt Q86X29)	inactive: 0.016
LRP6 (UniProt O75581)	inactive: 0.039
LBHD1 (UniProt Q9BQE6)	inactive: -0.017
LIMD2 (UniProt Q9BT23)	inactive: 0.028
LRG1 (UniProt P02750)	inactive: 0.018
LONRF2 (UniProt Q1L5Z9)	inactive: 0.154
LEG1 (UniProt Q6P5S2)	inactive: 0.077
LIN52 (UniProt Q52LA3)	inactive: 0.002
LNX1 (UniProt Q8TBB1)	inactive: -0.057
